Experimental data published in patent publication US5182367A, “5-lipoxygenase activating protein” (priority 1990, dated 1993).
At least one compound was matched to its structure with a doubt left.

Legend:
18kD protein (FLAP) [1] = target: T1, 18kD protein (FLAP) (Rattus norvegicus, UniProt P20291); test: elution of the 18kD protein from MK-886 analogue affinity columns; type: binding, rat and human; conditions: solubilized neutrophil membranes, result in words
T1 sequence (P20291 1-161): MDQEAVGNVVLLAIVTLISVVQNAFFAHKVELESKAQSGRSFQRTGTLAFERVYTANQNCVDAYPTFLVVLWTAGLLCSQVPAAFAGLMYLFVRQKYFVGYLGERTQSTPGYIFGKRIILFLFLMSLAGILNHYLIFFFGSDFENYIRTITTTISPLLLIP
Procedure: Rat peritoneal neutrophils (Ham, E. A. et al. Proc. Natn. Acad. Sci. USA 80, 4349-4353 (1983)) and human peripheral neutrophils (Boyum, A. Scand. J. Clin. Lab. Invest. (suppl. 97) 21, 77-89 (1968)) at 10^8 cells/ml were sonicated in 50 mM Tris-HCl buffer, pH 7.4, 140 mM NaCl, 2 mM EDTA, 1 mM DTT (dithiotreitol), 10% glycerol (homogenization buffer), together with the protease inhibitors 1 mM phenylmethylsulphonyl fluoride, […], and 10 mM furyl saccharine. After removal of 1000 g and 10,000 g-centrifugation pellets, the 100,000 g pellet was resuspended (3 mg/ml) in the homogenization buffer.
To purify FLAP, the microsome suspension was solubilized on ice for 30 minutes in 50 mM Tris-HCl buffer, pH 7.4, with 140 mM NaCl, 0.5 mM DTT, 5% glycerol and 1% CHAPS detergent (3-[(3-cholamidopropyl)-dimethylammonio]-1-propanesulfonate). After centrifugation for 10 minutes at 30,000 g, the supernatant was applied to 3 ml columns (6×10^9 cell equivalents per column) containing the affinity gel which was prepared by coupling MK-886 in THF (tetrahydrofuran) to pre-activated Affi-Gel 10, capping with ethanolamine,and washing with isopropanol. The columns were washed with […] solubilization buffer for 16 hours at 5° C. and eluted for 1 hour with four column volumes of buffer containing 100 μM MK-886.

leukotriene biosynthesis = leukotriene biosynthesis / production (cells not specified); type: cell-based; conditions: result in words, cells not given
18kD protein (FLAP) [2] = target: T2, 18kD protein (FLAP) (Homo sapiens, UniProt P20292); test: photoaffinity labelling of the 18kD protein with 125I-L-669,083; type: binding; conditions: 125I-L-669,083 probe, result in words
T2 construct: Incubation of ^125 I-L-669,083 with neutrophil extracts followed by irradiation with ultraviolet light; from tissue; host or cells: neutrophil extracts / human leukocyte membranes (endogenous protein)
T2 sequence (P20292 1-161): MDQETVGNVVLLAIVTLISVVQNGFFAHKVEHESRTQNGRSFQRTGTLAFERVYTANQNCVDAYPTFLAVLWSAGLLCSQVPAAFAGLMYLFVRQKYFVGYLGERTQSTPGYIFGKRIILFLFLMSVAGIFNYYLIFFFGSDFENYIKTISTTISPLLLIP
Text: The cellular target of MK-886 was identified by its specific labelling with an I^125 radio-labelled photoaffinity probe (^125 I-L-669,083) and by its retention on agarose gels to which analogues of MK-886 had been bound. […] This protein co-migrated on SDS-polyacrylamide gels with the photoaffinity-labelled protein. The 18kD protein comprised a minor portion of the […]-centrifugation pellet protein and was essentially absent from other cellular fractions.
A polyclonal rabbit antibody was prepared to the N-terminal 39 amino acids of the 18kD protein. The peptide immunogen was prepared by fusion of the DNA sequence coding for the peptide to the N-terminus of Che Y protein, and its expression in and purification from E. coli (Gan, Z. R., Gene 79, 159-166 (1989)). […] When human leukocyte membranes labelled with the ^125 I-L-669,083 photoaffinity probe were immunoprecipitated with the antipeptide antibody, a single labelled protein of Mr 18,000 was observed which was absent in membranes labelled in the presence of competing MK-886.

| Structure (SMILES) | elution of the 18kD protein from affinity columns/gels (18kD protein (FLAP) [1]) | inhibition of leukotriene biosynthesis / production (leukotriene biosynthesis) | inhibition of photoaffinity labelling of the 18kD protein (18kD protein (FLAP) [2]) |
| --- | --- | --- | --- |
| CCCCCC#CCC#CCC#CCC#CCCCC(=O)O [eicosatetraynoic acid] | neither eluted the 18kD protein | inhibitory effects on leukotriene production | nor inhibited photoaffinity labelling |
| CC(C)Cn1c(=O)n(C)c(=O)c2[nH]cnc21 [methylisobutylxanthine] | neither eluted the 18kD protein | inhibitory effects on leukotriene production | nor inhibited photoaffinity labelling |
